## Assay results

By UniProt entry, the sequences of proteins in these tests, tags left out.
UniProt O94782, whole entry, looked up, target on record: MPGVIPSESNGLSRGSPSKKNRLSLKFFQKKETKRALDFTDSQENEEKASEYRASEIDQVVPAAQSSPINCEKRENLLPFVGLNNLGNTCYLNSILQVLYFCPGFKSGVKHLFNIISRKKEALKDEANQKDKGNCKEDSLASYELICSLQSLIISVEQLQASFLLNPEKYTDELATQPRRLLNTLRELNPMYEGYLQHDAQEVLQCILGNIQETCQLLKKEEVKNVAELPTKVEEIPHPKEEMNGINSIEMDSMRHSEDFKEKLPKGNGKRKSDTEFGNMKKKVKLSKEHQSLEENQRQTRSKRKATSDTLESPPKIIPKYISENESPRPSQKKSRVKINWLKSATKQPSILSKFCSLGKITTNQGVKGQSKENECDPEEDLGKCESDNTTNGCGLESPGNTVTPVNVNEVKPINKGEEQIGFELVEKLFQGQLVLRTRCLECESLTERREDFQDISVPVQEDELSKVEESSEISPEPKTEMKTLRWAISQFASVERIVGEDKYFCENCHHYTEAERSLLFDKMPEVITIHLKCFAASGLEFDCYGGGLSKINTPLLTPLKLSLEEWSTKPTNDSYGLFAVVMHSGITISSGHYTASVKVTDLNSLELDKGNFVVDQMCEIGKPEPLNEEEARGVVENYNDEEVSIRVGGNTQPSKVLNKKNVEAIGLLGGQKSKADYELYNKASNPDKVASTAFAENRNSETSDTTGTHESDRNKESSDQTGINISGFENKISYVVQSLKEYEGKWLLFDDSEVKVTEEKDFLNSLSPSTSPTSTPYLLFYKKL

Source: PubChem BioAssay AID504865 (NCATS, 2011).

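Purified human USP1/UAF1 enzyme complex; fluorescence from ubiquitin-rhodamine substrate cleavage, read kinetically six times at one-minute intervals after substrate addition.
Compounds were titrated over 13 concentrations from about 0.0037 µM up to roughly 110 µM, the top dose varying by compound.
The value is the fitted AC50 from the dose-response series, and a lower number means a more potent inhibitor.
Calls come from curve class and fitted log AC50: scores 40-100 are active, 1-39 inconclusive (as here, weak, partial or poorly fitted curves), and 0 inactive.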

Values are in µM.
All entries here are filed as inconclusive.
Only part of the assay is shown, chiefly results filed as inconclusive.
A potency from a partial, single-point or poor curve is only a rough figure.
Some entries filed as inconclusive have a full curve.
Activity scores are not listed here.

Compound | Potency (µM) | remark
O=C(/C=C\c1ccc(O)c(O)c1)O[C@@H](Cc1ccc(O)c(O)c1)C(=O)O | 50.12 | inhibitor, partial curve, poor fit
COC1C(O)C(OC2CC[C@]3(C=O)C4C(OC(C)=O)C[C@@]5(C)C(C6=CC(=O)OC6)CC[C@]5(O)C4CC[C@]3(O)C2)OC(C)C1OC(C)=O (some centres undefined) | 89.13 | inhibitor, partial curve, poor fit
CNc1ccc(C(=O)CC(O)CCC(C)C2OC(=O)CC(O)CC(=O)CC(O)CC(O)CC(O)CC(O)CC3(O)CC(O)C(C(=O)OC)C(CC(O[C@@H]4OC(C)C(O)C(N)C4O)/C=C/C=C/C=C/C=C/C=C/C=C/C=C/C2C)O3)cc1 (some centres undefined) | 89.13 | inhibitor, partial curve, poor fit
O=C(OC1Cc2c(O)cc(O)cc2OC1c1cc(O)c(O)c(O)c1)c1cc(O)c(O)c(O)c1 (centres undefined) | 56.23 | inhibitor, partial curve
CO[C@H]1C[C@@H]2CC[C@@H](C)[C@@](O)(O2)C(=O)C(=O)N2CCCC[C@H]2C(=O)O[C@H]([C@H](C)C[C@@H]2CC[C@@H](O)[C@H](OC)C2)CC(=O)[C@H](C)/C=C(\C)[C@@H](O)[C@@H](OC)C(=O)[C@H](C)C[C@H](C)/C=C/C=C/C=C/1C | 35.48 | inhibitor, partial curve
Cc1cnc(CNc2nc(-c3cccnc3)nc3ccccc23)cn1 | 50.12 | inhibitor, partial curve, poor fit
O=[N+]([O-])c1c(Cl)cccc1-c1c[nH]cc1Cl | 39.81 | inhibitor, partial curve
COc1ccc2[nH]c(C(=O)c3ccccc3)cc2c1 | 12.59 | inhibitor, full curve
Cc1nc(N=Nc2ccc(S(=O)(=O)O)cc2S(=O)(=O)O)c(COP(=O)(O)O)c(C=O)c1O | 44.67 | inhibitor, partial curve, poor fit
CN(C)CCc1c[nH]c2ccc(CC3COC(=O)N3)cc12 (centres undefined) | 35.48 | inhibitor, single point
C[N+]1(C)CCc2cc3c(cc2[C@@H]1[C@@H]1C(=O)Oc2c1ccc1c2OCO1)OCO3 | 12.59 | inhibitor, full curve, poor fit
CCOC(=O)C(C#N)=C(c1ccccc1)c1ccccc1 | 56.23 | inhibitor, partial curve, poor fit
C(=C\c1ccccc1)/CN1CCN(C(c2ccccc2)c2ccccc2)CC1 | 44.67 | inhibitor, full curve, poor fit
CC(C)=CCCC(C)C1CC[C@@]2(C)C3=C(CC[C@@]12C)C1(C)CCC(O)C(C)(C)C1CC3 (some centres undefined) | 44.67 | inhibitor, partial curve
CCCCCCCCCCCCOCCOCCOCCOCCOCCOCCOCCOCCOCCO | 56.23 | inhibitor, partial curve, poor fit
CC(C)(C)c1cc(O)c(C(C)(C)C)cc1O | 44.67 | inhibitor, partial curve
Cc1noc(C)c1-c1nc(N2CCOCC2)c2ccccc2n1 | 35.48 | inhibitor, full curve, poor fit
C=CCN1CCN(c2nc3ccccc3nc2C#N)CC1 | 63.1 | inhibitor, partial curve, poor fit
CC1CCC(C(C)C)C(OC(=O)c2ccccc2N)C1 (centres undefined) | 39.81 | inhibitor, partial curve
COc1ccccc1CNc1nc(-c2ccccc2OC)nc2ccccc12 | 25.12 | inhibitor, single point
O=C(O)c1ccccc1-c1c2cc(Br)c(=O)cc-2oc2[c]([Hg])c(O)c(Br)cc12 | 1.259 | inhibitor, full curve, poor fit
c1ccc2c3c([nH]c2c1)[C@@H]1[C@H]2CC[C@H]([C@H]4CCCN[C@H]42)N1CC3 | 39.81 | inhibitor, single point
CN1CCN(c2nc(-c3cccc(C#N)c3)nc3ccccc23)CC1 | 56.23 | inhibitor, partial curve, poor fit
N[C@@](C(=O)O)(c1ccc(P(=O)(O)O)cc1)C1CC1 | 79.43 | inhibitor, partial curve, poor fit
CO[C@]12C(COC(N)=O)C3=C(C(=O)C(C)=C(N)C3=O)N1CC1NC12 (some centres undefined) | 56.23 | inhibitor, partial curve, poor fit
CN(C)c1ccc2nc3ccc(=[N+](C)C)cc-3sc2c1 | 50.12 | inhibitor, partial curve
CC(/C=C/C=C(\C)C(=O)O[C@@H]1O[C@H](CO[C@@H]2O[C@H](CO)[C@@H](O)[C@H](O)[C@H]2O)[C@@H](O)[C@H](O)[C@H]1O)=C\C=C\C=C(C)\C=C\C=C(/C)C(=O)O[C@@H]1O[C@H](CO[C@@H]2O[C@H](CO)[C@@H](O)[C@H](O)[C@H]2O)[C@@H](O)[C@H](O)[C@H]1O | 100 | inhibitor, partial curve, poor fit
CC[N+](CC)(CCCNC1=CC(=O)C(NCCC[N+](CC)(CC)Cc2ccccc2)=CC1=O)Cc1ccccc1 | 63.1 | inhibitor, partial curve, poor fit
CC(=O)N1CCN(C)CC1 | 56.23 | inhibitor, partial curve, poor fit
COc1cc2c(cc1O)CCN[C@@]21CS[C@H]2c3c(OC(C)=O)c(C)c4c(c3C(COC1=O)N1C2C2c3c(cc(C)c(OC)c3O)CC([C@@H]1O)N2C)OCO4 (some centres undefined) | 63.1 | inhibitor, partial curve, poor fit
CCCCCCCC/C=C/CCCCCCCCOP(=O)([O-])OCC[N+](C)(C)C | 89.13 | inhibitor, partial curve, poor fit
O=C1c2ccccc2CC[C@H]1CNCCc1ccc(O)cc1 | 44.67 | inhibitor, partial curve, poor fit
Oc1cc2cc(CCN3CCN(c4nsc5ccccc45)CC3)c(Cl)cc2[nH]1 | 50.12 | inhibitor, partial curve, poor fit
CCCCCCCC/C=C\CCCCCCCC(=O)NCc1ccc(O)c(OC)c1 | 19.95 | inhibitor, full curve
CC(=O)c1c(O)c(C)c(O)c2c1OC1=CC(=O)C(C(C)=O)C(=O)C12C (centres undefined) | 56.23 | inhibitor, partial curve

Once more, the final 2:

Compound	Potency (µM)	remark
CCCCCCCC/C=C\CCCCCCCC(=O)NCc1ccc(O)c(OC)c1	19.95	inhibitor, full curve
CC(=O)c1c(O)c(C)c(O)c2c1OC1=CC(=O)C(C(C)=O)C(=O)C12C (centres undefined)	56.23	inhibitor, partial curve